Legend:
[1] = Sensitometry of diffusion transfer film units with blocked compounds (Example XV); conditions: about 215 mgs./m.^2 in top coat layer
[2] = Sensitometry of diffusion transfer film units (Example VI); design: key to Rel. Speed B (symbol): *: blue relative speed too slow to measure; conditions: room temperature
[3] = Sensitometry of diffusion transfer film units, compound in photosensitive element (Example VII)
[4] = 0.05% in processing composition

For `CC(=O)Oc1ccc(CSc2nnnn2-c2ccc(O)cc2)cc1` [XVIII], the “Dmin B” value ([1]; 24° C.) was 0.23, the “Dmin G” value ([1]; 24° C.) was 0.15 and the “Dmin R” value ([1]; 24° C.) was 0.14. For the same compound, the “Dmin B” value ([1]; 35° C.) was 0.25, the “Dmin G” value ([1]; 35° C.) was 0.15 and the “Dmin R” value ([1]; 35° C.) was 0.14.

For `Sc1nnnn1-c1ccccc1` [PMT, 1-phenyl-5-mercaptotetrazole, reference compound], the “Dmax B” value [2, 4] was 2.20, the “Dmax G” value [2, 4] was 2.23 and the “Dmax R” value [2, 4] was 1.75. The “Dmin B” value [2, 4] was 0.76, the “Dmin G” value [2, 4] was 0.25 and the “Dmin R” value [2, 4] was 0.23. The “Rel. Speed B (symbol)” value [2, 4] was “*”, the “Rel. Speed G” value [2, 4] was 1.03 and the “Rel. Speed R” value [2, 4] was 1.29. For the same compound, the “blue Dmin vs control” value ([2]; 0.05%) was “large increase in the blue Dmin”, the “blue speed vs control” value ([2]; 0.05%) was “very large decrease in the blue speed” and the “restraint of development of blue sensitive emulsion” value ([2]; 0.05%) was “restrained development of the blue sensitive silver halide emulsion prematurely”.

With `CS(=O)(=O)CCSc1nnnn1-c1ccc(S(N)(=O)=O)cc1` [XIII] the “Dmin B” value ([1]; 24° C.) was 0.23, the “Dmin G” value ([1]; 24° C.) was 0.16 and the “Dmin R” value ([1]; 24° C.) was 0.15. The “Dmin B” value ([1]; 35° C.) was 0.25, the “Dmin G” value ([1]; 35° C.) was 0.17 and the “Dmin R” value ([1]; 35° C.) was 0.16.

With `CC(=NO)c1ccc(-n2nnnc2S)cc1` [Compound II] the “Dmax B” value [2, 4] was 2.06, the “Dmax G” value [2, 4] was 2.27 and the “Dmax R” value [2, 4] was 1.81. The “Dmin B” value [2, 4] was 0.19, the “Dmin G” value [2, 4] was 0.22 and the “Dmin R” value [2, 4] was 0.23. For the same compound, the “Rel. Speed B” value [2, 4] was 1.27, the “Rel. Speed G” value [2, 4] was 1.33 and the “Rel. Speed R” value [2, 4] was 1.34. The “blue Dmax vs control” value ([2]; 0.05%) was “increase in the blue Dmax”, the “blue Dmin vs control” value ([2]; 0.05%) was “without any increase in the blue Dmin” and the “Dmax B” value ([3]; 1 mg/m^2 in layer 5, 75° F.) was 2.25. The “Dmax G” value ([3]; 1 mg/m^2 in layer 5, 75° F.) was 1.75, the “Dmax R” value ([3]; 1 mg/m^2 in layer 5, 75° F.) was 2.03 and the “Rel. Speed B” value ([3]; 1 mg/m^2 in layer 5, 75° F.) was 1.33. For the same compound, the “Rel. Speed G” value ([3]; 1 mg/m^2 in layer 5, 75° F.) was 1.46, the “Rel. Speed R” value ([3]; 1 mg/m^2 in layer 5, 75° F.) was 1.52 and the “Δ Dmax B” value ([3]; 1 mg/m^2 in layer 5, 95° F.) was -0.15. The “Δ Dmax G” value ([3]; 1 mg/m^2 in layer 5, 95° F.) was -0.19, the “Δ Dmax R” value ([3]; 1 mg/m^2 in layer 5, 95° F.) was -0.48 and the “Dmax B” value ([3]; 2 mgs/m^2 in layer 5, 75° F.) was 2.24. For the same compound, the “Dmax G” value ([3]; 2 mgs/m^2 in layer 5, 75° F.) was 1.70, the “Dmax R” value ([3]; 2 mgs/m^2 in layer 5, 75° F.) was 2.09 and the “Rel. Speed B” value ([3]; 2 mgs/m^2 in layer 5, 75° F.) was 1.33. For the same compound, the “Rel. Speed G” value ([3]; 2 mgs/m^2 in layer 5, 75° F.) was 1.46, the “Rel. Speed R” value ([3]; 2 mgs/m^2 in layer 5, 75° F.) was 1.47 and the “Δ Dmax B” value ([3]; 2 mgs/m^2 in layer 5, 95° F.) was -0.11. For the same compound, the “Δ Dmax G” value ([3]; 2 mgs/m^2 in layer 5, 95° F.) was -0.09, the “Δ Dmax R” value ([3]; 2 mgs/m^2 in layer 5, 95° F.) was -0.27 and the “Dmax B” value ([3]; 3 mgs/m^2 in layer 5, 75° F.) was 2.28. The “Dmax G” value ([3]; 3 mgs/m^2 in layer 5, 75° F.) was 1.78, the “Dmax R” value ([3]; 3 mgs/m^2 in layer 5, 75° F.) was 2.14 and the “Rel. Speed B” value ([3]; 3 mgs/m^2 in layer 5, 75° F.) was 1.29. The “Rel. Speed G” value ([3]; 3 mgs/m^2 in layer 5, 75° F.) was 1.39, the “Rel. Speed R” value ([3]; 3 mgs/m^2 in layer 5, 75° F.) was 1.41 and the “Δ Dmax B” value ([3]; 3 mgs/m^2 in layer 5, 95° F.) was -0.11. For the same compound, the “Δ Dmax G” value ([3]; 3 mgs/m^2 in layer 5, 95° F.) was -0.06 and the “Δ Dmax R” value ([3]; 3 mgs/m^2 in layer 5, 95° F.) was -0.22.

In the case of `N#CCCSc1nnnn1-c1ccc(O)cc1` [XVI], the “Dmax R” value ([1]; 24° C.) is reported as 1.30, the “Dmin B” value ([1]; 24° C.) is reported as 0.15 and the “Dmin G” value ([1]; 24° C.) is reported as 0.13. For the same compound, the “Dmin R” value ([1]; 24° C.) was 0.15, the “Dmin B” value ([1]; 35° C.) was 0.17 and the “Dmin G” value ([1]; 35° C.) was 0.14. The “Dmin R” value ([1]; 35° C.) was 0.17.

With `CC(=O)c1ccc(-n2nnnc2S)cc1` [XI] the “Dmax B” value ([3]; 1 mg/m^2 in layer 5, 75° F.) was 2.23, the “Dmax G” value ([3]; 1 mg/m^2 in layer 5, 75° F.) was 1.71 and the “Dmax R” value ([3]; 1 mg/m^2 in layer 5, 75° F.) was 2.01. The “Rel. Speed B” value ([3]; 1 mg/m^2 in layer 5, 75° F.) was 1.35, the “Rel. Speed G” value ([3]; 1 mg/m^2 in layer 5, 75° F.) was 1.48 and the “Rel. Speed R” value ([3]; 1 mg/m^2 in layer 5, 75° F.) was 1.56. For the same compound, the “Δ Dmax B” value ([3]; 1 mg/m^2 in layer 5, 95° F.) was -0.14, the “Δ Dmax G” value ([3]; 1 mg/m^2 in layer 5, 95° F.) was -0.12 and the “Δ Dmax R” value ([3]; 1 mg/m^2 in layer 5, 95° F.) was -0.37. The “Dmax B” value ([3]; 2 mgs/m^2 in layer 5, 75° F.) was 2.25, the “Dmax G” value ([3]; 2 mgs/m^2 in layer 5, 75° F.) was 1.73 and the “Dmax R” value ([3]; 2 mgs/m^2 in layer 5, 75° F.) was 2.04. For the same compound, the “Rel. Speed B” value ([3]; 2 mgs/m^2 in layer 5, 75° F.) was 1.37, the “Rel. Speed G” value ([3]; 2 mgs/m^2 in layer 5, 75° F.) was 1.46 and the “Rel. Speed R” value ([3]; 2 mgs/m^2 in layer 5, 75° F.) was 1.58. The “Δ Dmax B” value ([3]; 2 mgs/m^2 in layer 5, 95° F.) was -0.11, the “Δ Dmax G” value ([3]; 2 mgs/m^2 in layer 5, 95° F.) was -0.05 and the “Δ Dmax R” value ([3]; 2 mgs/m^2 in layer 5, 95° F.) was -0.27. The “Dmax B” value ([3]; 3 mgs/m^2 in layer 5, 75° F.) was 2.23, the “Dmax G” value ([3]; 3 mgs/m^2 in layer 5, 75° F.) was 1.71 and the “Dmax R” value ([3]; 3 mgs/m^2 in layer 5, 75° F.) was 2.08. For the same compound, the “Rel. Speed B” value ([3]; 3 mgs/m^2 in layer 5, 75° F.) was 1.39, the “Rel. Speed G” value ([3]; 3 mgs/m^2 in layer 5, 75° F.) was 1.43 and the “Rel. Speed R” value ([3]; 3 mgs/m^2 in layer 5, 75° F.) was 1.57. For the same compound, the “Δ Dmax B” value ([3]; 3 mgs/m^2 in layer 5, 95° F.) was -0.05, the “Δ Dmax G” value ([3]; 3 mgs/m^2 in layer 5, 95° F.) was “+0.06” and the “Δ Dmax R” value ([3]; 3 mgs/m^2 in layer 5, 95° F.) was -0.19.

With `CC(=O)CCSc1nnnn1-c1ccc(O)cc1` [XIV] the “Dmin B” value ([1]; 24° C.) was 0.26, the “Dmin G” value ([1]; 24° C.) was 0.17 and the “Dmin R” value ([1]; 24° C.) was 0.16. For the same compound, the “Dmin B” value ([1]; 35° C.) was 0.26, the “Dmin G” value ([1]; 35° C.) was 0.17 and the “Dmin R” value ([1]; 35° C.) was 0.16.

In the case of `CC(=NO)c1ccc(-n2nnnc2SCCC#N)cc1` [XVII], the “Dmin B” value ([1]; 24° C.) is reported as 0.15, the “Dmin G” value ([1]; 24° C.) is reported as 0.13 and the “Dmin R” value ([1]; 24° C.) is reported as 0.16. The “Dmax R” value ([1]; 35° C.) was 1.40, the “Dmin B” value ([1]; 35° C.) was 0.17 and the “Dmin G” value ([1]; 35° C.) was 0.14. For the same compound, the “Dmin R” value ([1]; 35° C.) was 0.16.

With `CS(=O)(=O)CCSc1nnnn1-c1ccc(O)cc1` [XII] the “Dmax B” value ([1]; 24° C.) was 1.40, the “Dmax R” value ([1]; 24° C.) was 1.60 and the “Dmin B” value ([1]; 24° C.) was 0.24. The “Dmin G” value ([1]; 24° C.) was 0.17, the “Dmin R” value ([1]; 24° C.) was 0.18 and the “Dmin B” value ([1]; 35° C.) was 0.24. For the same compound, the “Dmin G” value ([1]; 35° C.) was 0.17 and the “Dmin R” value ([1]; 35° C.) was 0.16.

For `Oc1ccc(-n2nnnc2S)cc1` [Compound I, 1-(4-hydroxyphenyl)-5-mercaptotetrazole], the “Dmax B” value [2, 4] was 1.98, the “Dmax G” value [2, 4] was 2.24 and the “Dmax R” value [2, 4] was 1.75. The “Dmin B” value [2, 4] was 0.18, the “Dmin G” value [2, 4] was 0.20 and the “Dmin R” value [2, 4] was 0.22. For the same compound, the “Rel. Speed B” value [2, 4] was 1.44, the “Rel. Speed G” value [2, 4] was 1.38 and the “Rel. Speed R” value [2, 4] was 1.39. For the same compound, the “blue Dmax vs control” value ([2]; 0.05%) was “increase in the blue Dmax” and the “blue Dmin vs control” value ([2]; 0.05%) was “without any increase in the blue Dmin”.

For `CC(=O)CCSc1nnnn1-c1ccc(S(N)(=O)=O)cc1` [XV], the “Dmin B” value ([1]; 24° C.) was 0.16, the “Dmin G” value ([1]; 24° C.) was 0.13 and the “Dmin R” value ([1]; 24° C.) was 0.16. The “Dmin B” value ([1]; 35° C.) was 0.17, the “Dmin G” value ([1]; 35° C.) was 0.14 and the “Dmin R” value ([1]; 35° C.) was 0.16.

— patent US4390613A, “Diffusion transfer photographic system utilizing substituted phenylmercaptoazoles” (Polaroid Corporation, priority 1981, dated 1983)
